Test results as given in publication PMC6272198, “Isolation and Biochemical Characterization of Apios Tuber Lectin” (Molecules, 2015).

Test system: T1, Apios tuber lectin (ATL)
T1 construct: native protein purified from tubers (Fraction B)
Test: hemagglutination inhibition, rabbit erythrocytes
Assay type: biochemical, Apios americana
Conditions: 2-fold serial dilution of sugar; 2% rabbit erythrocytes

## OC[C@H]1OC(O)[C@H](O)[C@@H](O)[C@@H]1O (stereo partly drawn) [D-Glucose]
  mM: 500 mM

## OC[C@H]1OC(O)[C@H](O)[C@@H](O)[C@H]1O (stereo partly drawn) [D-Galactose]
  mM: 125 mM

## OC[C@H]1OC(O)[C@@H](O)[C@@H](O)[C@@H]1O (stereo partly drawn) [D-Mannose]
  mM: 250 mM

## N[C@H]1C(O)O[C@H](CO)[C@@H](O)[C@@H]1O (stereo partly drawn) [D-Glucosamine]
  mM: 63 mM

## CC(=O)N[C@H]1C(O)O[C@H](CO)[C@@H](O)[C@@H]1O (stereo partly drawn) [N-Ac-D-glucosamine]
  mM: > 1000 mM

## CO[C@H]1O[C@H](CO)[C@@H](O)[C@H](O)[C@@H]1O [Me-α-D-mannopyranoside]
  mM: 500 mM

## CC(=O)N[C@H]1C(O)O[C@H](CO)[C@H](O)[C@@H]1O (stereo partly drawn) [N-Ac-D-galactosamine]
  mM: > 1000 mM

## C[C@@H]1OC(O)[C@@H](O)[C@H](O)[C@@H]1O (stereo partly drawn) [L-Fucose]
  mM: 500 mM

## N[C@H]1C(O)O[C@H](CO)[C@H](O)[C@@H]1O (stereo partly drawn) [D-Galactosamine]
  mM: 63 mM

## OC1OC[C@@H](O)[C@@H](O)[C@H]1O (stereo partly drawn) [D-Ribose]
  mM: 125 mM
